Experiment [1] has as its target T1, IL-22 expressed in Expi293 cells (N-terminal human Fc tag cleaved with TEV) (human) (UniProt Q9GZX6).
T1 sequence (chain, glycosylated (glycosylation sites seen in cryo-EM classes)): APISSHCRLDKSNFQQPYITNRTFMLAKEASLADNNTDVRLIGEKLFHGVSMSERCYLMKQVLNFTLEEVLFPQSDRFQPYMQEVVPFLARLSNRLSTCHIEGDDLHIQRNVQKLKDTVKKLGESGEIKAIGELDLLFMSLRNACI
The experiment can be described thus: size-exclusion chromatography of the ternary complex, then cryo-EM. For orientation: Size exclusion chromatography separates by hydrodynamic size, large species first.

Amino acid sequences for entries named in this document (tags omitted). A change or cut given only in a name is not applied to a line headed by its entry. Chains listed by the source or under a name are the forms on record and can include a tag or linker.
Cynomolgus IL22 (G7PHZ7, form named): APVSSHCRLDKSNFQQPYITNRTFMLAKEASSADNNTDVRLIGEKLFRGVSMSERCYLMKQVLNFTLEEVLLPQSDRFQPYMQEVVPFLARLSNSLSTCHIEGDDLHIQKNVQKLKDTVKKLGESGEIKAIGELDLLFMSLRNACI

Experiment [2] has as its target T2, Cynomolgus IL22 (cynomolgus) (UniProt G7PHZ7).
T2 sequence: T1 sequence (chain, glycosylated (glycosylation sites seen in cryo-EM classes)) with I3V, L32S, H48R, F72L, R95S, R110K
As to the kind of experiment: binding screen of recombinant cloned Fabs.

The target in experiment [3] is Cleaved IL22 (IL-22 protein sequence after TEV cleavage) (human) (UniProt Q9GZX6). As to the kind of experiment: complex purified by size-exclusion chromatography and crystallised (X-ray).

Positions count from the first letter of the chain named. No constants are given. Whether binding was seen depends on the method and setting. Some results given as binding are weak or reduced against the parent protein; the word gives no strength. For some of these results: Sequences can lack the tags named with a protein.

B1: 11070gL7gH16 Fab (Fab, V domains shown)
VH: EVQLQESGPGLVKPSQTLSLTCTVSGFSLTSYSVHWVRQHPGKGLEWIGRMWSDGDTSYNTAFTSRLTISRDTSKNQVSLKLSSVTAADTAVYYCARSLDFYYDTTLAFWGQGTTVTVSS
VL: DIQMTQSPSSVSASVGDRVTITCKASKTISKYLAWYQQKPGKANKLLIYSGSTLQSGVPSRFSGSGSGTDFTLTISSLQPEDFATYYCQQHNEYPLTFGQGTKLEIKR
Turning to B1, in experiment [1], the binding result is recorded as “binds”.

B2: rabbit 11041 Fab (Fab, V domains shown)
VH: QSVEESGGRLVTPGTPLTLTCTVSGFSLSSYAMIWVRQAPGEGLEWIGIIDIDGSTYYASWAKGRFTISRTSTTVDLKITSPTTGDTATYFCARDRFVGVDIFDPWGPGTLVTVSS
VL: AVVLTQTASPVSAPVGGTVTIKCQASEDIYTNLAWYQQKPGQPPKLLIYWASTLASGVPSRFKGSGSGTEFTLTISDLECADAATYYCQACVYGNSADSRYTFGGGTEVVVK
In the case of B2, in experiment [2], the binding entry is “binds”.

B3: 11041gL13gH14 Fab (Fab, V domains shown)
VH: EVQLVESGGGLVQPGGSLRLSCAVSGFSLSSYAMIWVRQAPGKGLEWIGIIDIEGSTYYASWAKGRFTISRDNSKNTVYLQMNSLRAEDTAVYYCARDRFVGVDIFDPWGQGTLVTVSS
VL: AVQLTQSPSSLSASVGDRVTITCQASEDIYTNLAWYQQKPGKAPKLLIYWASTLASGVPSRFSGSGSGTDFTLTISSLQPEDFATYYCQASVYGNAADSRYTFGGGTKVEIKR
notes: Humanized Fab; also called VR11041
Turning to B3, in experiment [3], the binding result was “binds”.

B4: 11070 (rat derived, parental) (Fab, V domains shown)
VH: EVQLQESGPGLVQPSQTLSPTCTVSGFSLTSYSVHWVRQHSGKSLEWMGRMWSDGDTSYNSAFTSRLSITRDTSKSQVFLKMNSLQTEDTGTYYCARSLDFYYDTTLAFWGPGTTVTVSS
VL: DIVMTQTPSNLAASPGESVSINCKASKTISKYLAWYQQKPGKANKLLIYSGSTLQSGTPSRFSGSGSSTDFTLTIRNLEPEDFGLYYCQQHNEYPLTFGSGTKLEIK
For B4, the binding entry in experiment [2] was “binds”.
